Experimental data taken from PubChem BioAssay AID2685 (National Center for Advancing Translational Sciences (NCATS), 2010).
In all, about 320,000 compounds went through this assay and about 2,100 (0.66%) were called active. This list was built around the results that the source calls inconclusive (neither active nor inactive); the mix of calls is not that of the screen. Calls come from the whole dose curve; as a rule, active = well fitted inhibition curve with a large enough effect in the signal ratio, with a control signal flat (not every such curve was filed as active); inconclusive = small, poorly fitted or top-dose-only effect, or effect the other way, or a change in a side signal; inactive = flat fitted curve, though single readings scatter; the % refers to the signal ratio. A potency beside an inconclusive call is a rough fit, not a confirmed value.
% is set by controls: 0 for no effect and ±100 for the full control effect; potency is the fitted concentration of half-maximal effect.

Test: qHTS Assay for Lipid Storage Modulators in Drosophila S3 Cells
Settings: BODIPY lipid droplet fluorescence, 18-24 h, cells fed with added oleic acid; lipid storage change, negative = inhibition: at 46.1 µM (top of the series) unless noted
Method in brief: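 Drosophila S3 cells loaded with oleic acid (400 uM, as added) and compounds at several concentrations; lipid droplets imaged by 488-nm laser-scanning cytometry, 500–530 nm intensity and object ratio to cell channel. Percent activity normalized to 20 uM Triacsin C.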
For `Cc1cc(/C(N)=N/OC(=O)Nc2ccccc2)no1`, the lipid storage change, negative = inhibition was “inactive”.
With `O=C(NCCN1C(=O)S/C(=C\c2ccc(F)cc2)C1=O)c1cccc(S(=O)(=O)N2CCOCC2)c1` the Potency was active: 13 µM.
With `Cc1ccc(NC(=O)CSCC(=O)N2CCOCC2)cc1` the lipid storage change, negative = inhibition was inconclusive: 4.23%.
With `CCn1c(SC)nnc1-c1nn(-c2ccccc2)ccc1=O` the lipid storage change, negative = inhibition was inconclusive: 0.841%.
With `O=C(Cc1ccc([N+](=O)[O-])cc1)N1CCN=C1SCc1ccccc1` the lipid storage change, negative = inhibition was inconclusive: 28.2%.
With `Clc1ccc(-c2nc3ccccc3nc2-c2ccccc2)cc1` the lipid storage change, negative = inhibition was inconclusive: -49%.
For `Cc1cc2nc(C(C)(C)C)cc(N)n2n1`, the Potency was inconclusive: 1.03 µM [cytotoxic, full curve].
For `Cc1[nH]n(-c2ccc(Cl)cc2)c(=O)c1N=Nc1cccnc1`, the lipid storage change, negative = inhibition was “inactive”.
For `CC[n+]1c(S(=O)(=O)[O-])ccc2ccc(C)cc21`, the lipid storage change, negative = inhibition was “inactive”.
In the case of `O=C(N1CCOCC1)N1CCN(S(=O)(=O)c2cccc([N+](=O)[O-])c2)CC1`, the Potency is reported as inconclusive: 0.411 µM [falling, full curve, poor fit].
In the case of `Cc1ccc(N(C(=O)c2csnn2)C(C(=O)NC2CCCCC2)c2ccco2)cc1` (centres undefined), the lipid storage change, negative = inhibition is reported as inconclusive: 40.1%.
In the case of `Cc1cc(NC(=O)C(C)Sc2nc(-c3ccccc3)cc(=O)[nH]2)no1` (centres undefined), the Potency is reported as inconclusive: 14.6 µM [activator, partial curve].
In the case of `CCN(CC)S(=O)(=O)c1ccc2nc(COC(=O)c3n[nH]c4ccccc34)[nH]c2c1`, the Potency is reported as inconclusive: 2.59 µM [activator, partial curve].
For `Cc1ccc(SCC(=O)Nc2ccc(N3CCOCC3)cc2)cc1`, the Potency was inconclusive: 16.4 µM [falling, single point].
In the case of `Cc1cc(C)cc(Oc2nc3ccccn3c(=O)c2/C=C(\C#N)C(=O)NC2CCS(=O)(=O)C2)c1` (centres undefined), the lipid storage change, negative = inhibition is reported as inconclusive: 0.211%.
With `CCOc1ccccc1C(=O)Nc1cc(=O)n(C)c(=O)n1C` the lipid storage change, negative = inhibition was inconclusive: -4.32%.
With `CCOC(=O)c1c(CC(C)C)csc1/N=C/C1=C(O)CCCC1=O` the Potency was inconclusive: 9.2 µM [falling, partial curve].
With `Cc1cccc(NC(=O)CSc2nnc(NC(=O)c3ccc(S(=O)(=O)N4CCOCC4)cc3)s2)c1C` the Potency was inconclusive: 29.1 µM [activator, single point].
For `COc1cccc(N2CCN(C(=S)Nc3ccccc3OC)CC2)c1`, the lipid storage change, negative = inhibition was inconclusive: 1.88%.
In the case of `COC(=O)c1ccccc1NC(=O)COC(=O)/C=C/c1ccco1`, the lipid storage change, negative = inhibition is reported as inconclusive: 31.3%.
With `COc1ccccc1OCC(=O)N(Cc1nc(-c2ccccc2)no1)C1CCCCC1` the lipid storage change, negative = inhibition was inconclusive: 64.8%.
In the case of `Cc1cc(-c2nnc(SCC(=O)Nc3nc(-c4ccc(Cl)cc4)cs3)o2)no1`, the lipid storage change, negative = inhibition is reported as inconclusive: -9.54%.
For `COc1ccccc1NC(=S)NNC(=O)c1nn(C)cc1Cl`, the lipid storage change, negative = inhibition was inconclusive: -64.1%.
With `COc1ccccc1CNc1cncnc1` the lipid storage change, negative = inhibition was “inactive”.
In the case of `COc1cccc(CNC(=O)CCC2CCCN(C(=O)c3cc(C)[nH]n3)C2)c1` (centres undefined), the lipid storage change, negative = inhibition is reported as inconclusive: -18.7%.
For `CN1CCN(c2nc(-c3ccccc3)nc3c2oc2ccccc23)CC1`, the lipid storage change, negative = inhibition was inconclusive: 14.5%.
In the case of `CCNC(=S)N(Cc1cccs1)Cc1cc2cc(OCC)ccc2[nH]c1=O`, the lipid storage change, negative = inhibition is reported as inconclusive: -5.36%.
With `Cc1noc(C)c1COC(=O)c1ccc2c(c1)OCO2` the lipid storage change, negative = inhibition was inconclusive: 34.2%.
With `CCC1(C)Cc2ccccc2-c2c1c(=O)n(-c1ccc(C)cc1)c1nnnn21` (centres undefined) the Potency was inconclusive: 14.6 µM [falling, partial curve, poor fit].
With `CCn1c(=O)n(CC)c2cc(N3CCCC3)c(NC(=O)c3ccc(F)cc3)cc21` the lipid storage change, negative = inhibition was inconclusive: 17.1%.
For `CC(CCCC(C)(C)O)NCCO` (centres undefined), the lipid storage change, negative = inhibition was inconclusive: -6.12%.
With `COc1ccccc1CCNC(=O)C(=O)NCCC1CCCCN1S(=O)(=O)c1ccccc1` (centres undefined) the lipid storage change, negative = inhibition was inconclusive: -55.9%.
For `Cc1nc2ccccc2c(=O)n1NC(=O)c1cncc(Br)c1`, the lipid storage change, negative = inhibition was inconclusive: 10%.
In the case of `O=C(CCNS(=O)(=O)c1cccc2nsnc12)NC1CCCc2ccccc21` (centres undefined), the Potency is reported as inconclusive: 20.6 µM [activator, single point].
With `CC(=O)c1cc(-c2ccccc2)n(CC(=O)N2CCC(C)CC2)c1C` the Potency was inconclusive: 9.2 µM [cytotoxic, partial curve].
In the case of `N#CC1=C2N=C(N)c3ccccc3N2C2=C(C(=O)CCC2)C1c1ccc(Cl)cc1` (centres undefined), the Potency is reported as inconclusive: 3.66 µM [activator, partial curve].
For `O=C(c1ccc(COCC(F)(F)F)o1)N1CCCCCC1`, the lipid storage change, negative = inhibition was inconclusive: -5.9%.
With `Cc1cccc(OCC(=O)N(Cc2cccs2)C2CCS(=O)(=O)C2)c1` (centres undefined) the lipid storage change, negative = inhibition was inconclusive: 26.9%.
In the case of `COc1ccc(CNC(=O)CN(C(=O)c2ccc(CN3CCOCC3)o2)C2CCCC2)cc1`, the lipid storage change, negative = inhibition is reported as inconclusive: -15.1%.
